{"sequences": {"note": "The chains behind the UniProt entries cited, without tags or fusion partners.", "UniProt P63208": "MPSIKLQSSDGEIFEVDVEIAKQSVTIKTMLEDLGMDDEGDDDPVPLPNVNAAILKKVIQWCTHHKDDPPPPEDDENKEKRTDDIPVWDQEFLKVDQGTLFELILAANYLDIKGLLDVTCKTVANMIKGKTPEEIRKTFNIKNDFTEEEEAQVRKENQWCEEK"}, "source": "paper PMC3642104", "experiment_in_all_cases": "affinity purification with mass spectrometry; FLAG agarose immunoprecipitation from 50 mg CHAPS lysate of transiently transfected 293T cells, overnight at 4 degrees, elution with FLAG peptide, LC-MS/MS; FLAG only lysate as control", "key": {"[1]": {"target": "T1, FLAG-tagged Fbxw4 (mouse) (UniProt Q9JMJ2)", "T1 sequence": "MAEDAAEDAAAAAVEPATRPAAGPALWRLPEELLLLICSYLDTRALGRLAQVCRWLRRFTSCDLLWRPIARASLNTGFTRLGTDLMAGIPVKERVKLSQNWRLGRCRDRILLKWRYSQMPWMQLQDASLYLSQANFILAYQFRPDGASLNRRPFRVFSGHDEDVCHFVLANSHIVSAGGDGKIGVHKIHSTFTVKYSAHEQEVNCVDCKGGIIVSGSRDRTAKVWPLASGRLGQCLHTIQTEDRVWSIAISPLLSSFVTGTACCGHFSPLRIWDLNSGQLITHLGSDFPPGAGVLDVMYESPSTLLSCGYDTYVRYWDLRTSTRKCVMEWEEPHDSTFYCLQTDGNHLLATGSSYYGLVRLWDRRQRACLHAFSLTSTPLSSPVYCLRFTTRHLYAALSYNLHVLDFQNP"}, "FLAG-Fbxw4^−fbox (mouse)": {"target": "T2, FLAG-Fbxw4^−fbox (mouse) (UniProt Q9JMJ2)", "T2 sequence": "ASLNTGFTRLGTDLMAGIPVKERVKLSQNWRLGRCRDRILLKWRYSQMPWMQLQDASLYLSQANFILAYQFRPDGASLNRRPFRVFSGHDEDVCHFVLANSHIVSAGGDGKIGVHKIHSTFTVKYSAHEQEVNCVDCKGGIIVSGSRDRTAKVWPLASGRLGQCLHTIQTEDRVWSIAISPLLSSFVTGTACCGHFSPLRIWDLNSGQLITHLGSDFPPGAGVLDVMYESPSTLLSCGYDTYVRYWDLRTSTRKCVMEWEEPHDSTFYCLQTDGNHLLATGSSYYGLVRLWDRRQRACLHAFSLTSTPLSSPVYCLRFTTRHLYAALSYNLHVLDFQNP"}, "[2]": {"target": "T3, FLAG-tagged Fbxo46 (mouse) (UniProt Q8BG80)", "T3 sequence": "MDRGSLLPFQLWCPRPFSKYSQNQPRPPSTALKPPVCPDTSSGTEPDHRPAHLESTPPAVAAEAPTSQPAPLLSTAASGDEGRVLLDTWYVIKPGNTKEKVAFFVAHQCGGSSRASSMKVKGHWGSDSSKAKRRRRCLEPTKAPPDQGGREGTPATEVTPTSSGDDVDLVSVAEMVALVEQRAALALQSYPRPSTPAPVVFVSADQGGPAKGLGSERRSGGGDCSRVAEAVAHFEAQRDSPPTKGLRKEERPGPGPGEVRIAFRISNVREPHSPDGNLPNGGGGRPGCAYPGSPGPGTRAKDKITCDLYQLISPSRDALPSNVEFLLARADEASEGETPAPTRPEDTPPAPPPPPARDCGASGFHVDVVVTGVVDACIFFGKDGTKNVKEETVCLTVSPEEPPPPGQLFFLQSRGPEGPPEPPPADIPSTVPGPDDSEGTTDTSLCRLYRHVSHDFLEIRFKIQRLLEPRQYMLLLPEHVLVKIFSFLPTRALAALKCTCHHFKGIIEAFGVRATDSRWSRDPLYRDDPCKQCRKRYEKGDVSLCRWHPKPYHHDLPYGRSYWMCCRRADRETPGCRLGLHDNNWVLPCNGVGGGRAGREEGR"}}, "note": "These are yes or no findings as the source states them, for the method shown. In cells and extracts the contact can be indirect. Here binding means that the protein was enriched with, or labelled near, the bait; the list need not be complete. For part of these data: No binding means not detected with the bait. Sequences can lack the tags named with a protein."}
{"substance": "SKP1 (from UniProt P63208 1-163)", "values": [{"measurement": "binding", "setting": "[1]", "result": "binds"}, {"measurement": "binding", "setting": "FLAG-Fbxw4^−fbox (mouse)", "result": "no binding"}, {"measurement": "binding", "setting": "[2]", "result": "binds"}]}
